Measurements published in PubChem BioAssay AID2685 (National Center for Advancing Translational Sciences (NCATS), 2010).
The other results are listed elsewhere or left out. The main result of the screen is listed elsewhere. These columns were measured beside it and carry no call. Compounds called inactive in the main read-out are mostly missing here. Potencies come from curve fits of mixed quality, noted in brackets.

Test: qHTS Assay for Lipid Storage Modulators in Drosophila S3 Cells;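 on cell number change: cells counted by Cell Tracker Red CMTPX staining in the red channel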
Conditions: BODIPY lipid droplet fluorescence, 18-24 h; for cell number change: measured here: cell count max response, cells fed with added oleic acid
Method in brief: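 Laser-scanning cytometry quantifies lipid droplet accumulation (500–530 nm total intensity; droplet/cell object ratio) in oleic acid-fed (400 uM added) Drosophila S3 cells treated with a concentration series. 20 uM Triacsin C defined 100% inhibition.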

[1] = measured here: lipid fluorescence (Fed channel) AC50, cells fed with added oleic acid
[2] = measured here: cell number channel AC50, cells fed with added oleic acid

Row | Structure (SMILES) | cell number change [%] | AC50 [1] | AC50 [2]
1 | CN1C(=O)/C(=C2\SC(=S)N(NC(=O)c3cccnc3)C2=O)c2ccccc21 | 5.96 | 29.1 µM [falling, single point] | –
2 | CCCCCCNC(=O)c1c(O)c2cccc3c2n(c1=O)CCC3 | 16.1 | 0.82 µM [rising, partial curve, poor fit] | 1.46 µM [rising, partial curve, poor fit]
3 | O=C1CCCCN1CC(=O)N1CCCC(N2CCN(c3ccccc3F)CC2)C1 (centres undefined) | 8.02 | – | –
4 | COc1ccc(Br)cc1C(=O)Nc1cccc(NC(=O)c2ccco2)c1 | -8.92 | 18.4 µM [rising, single point] | –
5 | CC(C)(C)n1nnc(CCc2nnn(C(C)(C)C)n2)n1 | -3.47 | 16.4 µM [falling, single point] | –
6 | CNC(=O)NC(=O)C(C)OC(=O)c1oc2ccccc2c1CSc1ccc(Cl)cc1 (centres undefined) | 25.1 | 25.9 µM [falling, single point] | –
7 | Oc1ccc(/C=N/n2c3ccccc3c3ccccc32)cc1 | -23.7 | – | –
8 | O=C(NCCN1C(=O)S/C(=C\c2ccccc2)C1=O)c1cc(S(=O)(=O)N2CCOCC2)c(Cl)cc1Cl | -8.54 | 32.6 µM [falling, single point] | –
9 | COC(=O)c1cc(OC)c(OC)cc1NC(=O)c1ccc(OC)c(OC)c1 | -9.72 | 3.26 µM [rising, full curve] | 0.231 µM [rising, partial curve]
10 | C/C(=N\NC(N)=S)c1ccc(Cl)s1 | 0.656 | 29.1 µM [falling, single point] | –
11 | CC1=C(C(=O)OCc2ccccc2)N2C(=O)[C@@H](NC(=O)COc3ccccc3)[C@H]2SC1 | 22.3 | – | –
12 | COc1ccc(C(=O)C(C)OC(=O)c2sc(C)nc2C)cc1 (centres undefined) | -23 | 1.46 µM [falling, partial curve] | –
13 | CN(CC(=O)Nc1ccc(F)cc1)C(=O)COC(=O)C1CCN(c2ccc(C(F)(F)F)cn2)CC1 | 6.43 | – | –
14 | CCOC(=O)c1sc(=S)n(C)c1C | -33.2 | – | 1.46 µM [falling, full curve]
15 | O=C(CN(Cc1ccc(Cl)cc1)S(=O)(=O)c1ccccc1)NCC1CCCO1 (centres undefined) | -13.9 | 29.1 µM [rising, single point] | –
16 | Cc1ccccc1-c1nc(CS(=O)(=O)CC(=O)NCCc2ccccc2)c(C)o1 | – | 6.51 µM [falling, single point] | –
17 | O=C(Nc1nccs1)c1ccc(-c2ccc(F)c(Cl)c2)o1 | – | 6.51 µM [falling, partial curve] | –
18 | CCOC(=O)c1cnc2c(c(C3CC3)nn2C)c1N1CCOCC1 | 22.3 | – | 0.651 µM [falling, single point]
19 | CN(C)C(CNC(=O)CCc1c[nH]c2ccccc12)c1ccccc1 (centres undefined) | 19.1 | 2.91 µM [rising, single point] | –
20 | COc1ccc2[nH]c(=O)c(CN(C(=O)c3cccnc3)c3ccccc3OC)cc2c1 | 118 | – | 5.17 µM [rising, partial curve]

Some of the entries above, reformatted.
Row	Structure (SMILES)	cell number change [%]	AC50 [1]	AC50 [2]
1	CN1C(=O)/C(=C2\SC(=S)N(NC(=O)c3cccnc3)C2=O)c2ccccc21	5.96	29.1 µM [falling, single point]	–
2	CCCCCCNC(=O)c1c(O)c2cccc3c2n(c1=O)CCC3	16.1	0.82 µM [rising, partial curve, poor fit]	1.46 µM [rising, partial curve, poor fit]

The list goes on:

Row | Structure (SMILES) | cell number change [%] | AC50 [1] | AC50 [2]
21 | O=C(CSc1nc2ccccc2c(=O)n1-c1ccccc1Cl)Nc1cccc(S(=O)(=O)N2CCOCC2)c1 | -19.8 | 0.731 µM [falling, full curve, poor fit] | –
22 | Cn1cc(Cl)c(C(=O)Nc2nc3ccccc3s2)n1 | – | 6.51 µM [rising, single point] | 1.3 µM [rising, full curve, poor fit]
23 | COc1ccc(C(=O)Nc2ccc(N3CCN(C(=O)c4ccccc4)CC3)cc2)cc1[N+](=O)[O-] | -1.23 | – | –
24 | O=C(CN1CCN(S(=O)(=O)c2ccccc2)CC1)Nc1ccc(N2CCOCC2)cc1 | 17.2 | 11.6 µM [rising, partial curve, poor fit] | –
25 | Cc1ccc(Cl)cc1NC(=S)N(Cc1cccnc1)Cc1ccccc1Cl | 54.5 | – | 29.1 µM [rising, single point]
26 | FC(F)(F)c1cc(-c2ccccc2)nc(NCC2CCCO2)n1 (centres undefined) | -48.3 | 29.1 µM [falling, partial curve, poor fit] | 8.2 µM [falling, partial curve, poor fit]
27 | Cc1cccc(C)c1OCC(=O)NNC(=O)Nc1ccc(Cl)cc1 | – | 0.58 µM [falling, single point] | –
28 | CCN(CC)S(=O)(=O)c1ccc(Cl)c(NC(=O)COc2ccc(OC)cc2[N+](=O)[O-])c1 | -3.66 | – | –
29 | CN(C)C(=O)c1ccc(-n2cccn2)nc1 | – | 3.66 µM [rising, partial curve] | –
30 | O=C(NC1CCCCC1)C(c1ccco1)N(Cc1cccnc1)C(=O)C1COc2ccccc2O1 (centres undefined) | – | – | 2.06 µM [rising, partial curve]
31 | CC1(C)CC(=O)C(CC2=C(O)CC(C)(C)CC2=O)C(=O)C1 | 11.9 | – | 0.082 µM [rising, full curve]
32 | COc1cnn(-c2cccc(C)c2)c(=O)c1Cl | -0.985 | 0.651 µM [rising, single point] | –
33 | COc1ccc(C)cc1NC(=O)CSc1nnc2ccc(-c3ccncc3)nn12 | – | – | 0.0461 µM [rising, full curve, poor fit]
34 | Cc1ccccc1NS(=O)(=O)c1cc(C(=O)NCCSC2CCCCC2)ccc1C | -15.1 | 16.4 µM [falling, single point] | –
35 | c1ccc(CSc2nnnn2-c2cccc3ccccc23)nc1 | 17.7 | 1.46 µM [rising, partial curve] | –
36 | COc1ccccc1C(=O)Nc1cccc(-c2cn3ccsc3n2)c1 | – | 0.00461 µM [rising, full curve, poor fit] | –
37 | CCOc1cc(CNC(C)C)c(Cl)cc1OCC(=O)NCCc1ccccc1 | – | 6.51 µM [rising, single point] | –
38 | COc1ccc(-n2c(C)cc(C(=O)COC(=O)Cc3n[nH]c(=O)c4ccccc34)c2C)cc1 | -37.3 | 20.6 µM [falling, partial curve, poor fit] | 16.4 µM [falling, single point]
39 | Cn1c(=O)c2c(ncn2CC(=O)NCc2cccnc2)n(C)c1=O | -0.707 | – | –
40 | COc1cc(NC(=O)c2cccs2)c(C(=O)OCC(=O)c2cc(C)n(-c3ccccc3)c2C)cc1OC | 16.2 | 0.517 µM [rising, single point] | –
